Reference: PubChem BioAssay AID1347076 (National Center for Advancing Translational Sciences (NCATS), 2019)
Among all 400,000 compounds or so, about 13,000 (3.2%) were called active. Inconclusive means that the source gave no clear call. Such entries were picked first, then a sample of the others. Calls follow the shape of the dose curve; as a rule, active = well fitted cell-killing curve with a large enough effect; inconclusive = small, poorly fitted or top-dose-only effect, or effect the other way; inactive = flat fitted curve, though single readings scatter. Potencies of inconclusive entries are doubtful fits and often do not repeat.
Potency is read from the fitted curve at half-maximal effect.

Assay: qHTS assay for MDR1-selective chemotherapeutics: Primary screen using the drug-selected MDR subline cells KB-V1; also: nearly all actives have a fitted effect of over 60% in size
Settings: KB-V1 MDR cells viability, CellTiter-Glo, 72 h; series mostly up to 46.1 µM
Summary of the method: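 Potencies derive from concentration-effect curves fitted to normalized luminescence (CellTiter-Glo) of KB-V1 cells treated for 72 h at 37 degrees C in phenol-red-free DMEM containing 10% FBS.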
In the case of `Cc1nc(-c2cccc(NC(=O)C(C)Oc3ccccc3)c2)cs1` (stereo unspecified), the Potency is reported as inconclusive: 16.4 µM [cytotoxic, single point].
With `Cc1cc2oc(=O)cc(CN(C)Cc3cccc(F)c3)c2cc1C` the Potency was “inactive”.
For `CCn1cc(CN2CCC(C(=O)Nc3ccc(Oc4cccnc4)cc3)CC2)cn1`, the Potency was “inactive”.
With `Cc1ccc(NC(=O)c2c(C)nc3sc(C(=O)Nc4ccc(F)cc4)c(N)c3c2-c2ccc(Cl)cc2)c(C)c1` the Potency was “inactive”.
In the case of `CCOc1ccc(Cn2c(=O)oc3ccc(C)cc32)cc1OC`, the Potency is reported as inconclusive: 23.1 µM [cytotoxic, partial curve, poor fit].
For `CC1(C(=O)NS(=O)(=O)c2ccc(Cl)cc2)CCN1C(=O)CCc1ccccc1` (stereo unspecified), the Potency was “inactive”.
In the case of `COc1cc2[nH]c(=S)n(Cc3ccc(F)cc3)c(=O)c2cc1OC`, the Potency is reported as inconclusive: 5.17 µM [cytotoxic, partial curve, poor fit].
For `COc1cc(SC)ccc1C(=O)OC(C)C(=O)NC1CCCC1` (stereo unspecified), the Potency was inconclusive: 14.6 µM [cytotoxic, partial curve].
For `Cn1ncc(N2CCN(S(=O)(=O)c3ccc(Br)cc3)CC2)c(Cl)c1=O`, the Potency was inconclusive: 10.3 µM [cytotoxic, partial curve].
For `CCOC(=O)c1c(NC(=O)COc2ncnc3ccccc23)sc(C(C)=O)c1C`, the Potency was “inactive”.
In the case of `CC1CCCCN1C(=O)Cc1ccc(F)cc1` (stereo unspecified), the Potency is reported as “inactive”.
In the case of `Cc1cc(NC(=O)c2ccco2)sc1C`, the Potency is reported as inconclusive: 23.1 µM [cytotoxic, single point].
For `CCC1C(O)=C(c2ccccn2)C(=N)N1c1ccccc1` (stereo unspecified), the Potency was “inactive”.
For `COc1ccc(-c2nc(N)ncc2-c2ccc(OC)c(OC)c2)c(O)c1`, the Potency was inconclusive: 18.4 µM [cytotoxic, single point].
With `O=C1NC(=S)S/C1=C\c1ccc(SCc2ccco2)o1` the Potency was inconclusive: 0.0103 µM [rising, full curve, poor fit].
With `NC(=O)c1nc[nH]c1C(=O)Nc1cccc(C(F)(F)F)c1` the Potency was inconclusive: 11.6 µM [cytotoxic, single point].
In the case of `CCCCNC(=O)CN1C(=O)NC2NC(=O)NC21` (stereo unspecified), the Potency is reported as inconclusive: 29.1 µM [rising, single point].
For `COc1cccc(Cn2c(Oc3cccc(C)c3)nc3c2c(=O)n(C)c(=O)n3C)c1`, the Potency was inconclusive: 10.3 µM [cytotoxic, partial curve].
For `COc1ccccc1C(=O)Nc1nnc(S(=O)(=O)N2CCN(c3ccc(F)cc3)CC2)s1`, the Potency was inconclusive: 29.1 µM [cytotoxic, single point].
With `CCCCN1C(=O)C(=O)N(CC(=O)N2CCN(c3ccccc3)CC2)C1=O` the Potency was “inactive”.
With `COc1ccccc1CNC(=O)C(Cc1c[nH]c2ccccc12)NC(=O)OCc1ccccc1` (stereo unspecified) the Potency was active: 18.4 µM.
For `O=C(NNC1CC(=O)N(c2ccccc2)C1=O)c1ccc(COc2ccccc2Cl)o1` (stereo unspecified), the Potency was “inactive”.
In the case of `CC1CN(CCS(=O)(=O)c2cc(Cl)ccc2Cl)CC(C)O1` (stereo unspecified), the Potency is reported as inconclusive: 25.9 µM [cytotoxic, single point].
With `O=C(NCc1ccc(F)cc1)C(=O)NCC1CCCN1S(=O)(=O)c1ccccc1` (stereo unspecified) the Potency was inconclusive: 9.2 µM [cytotoxic, partial curve].
With `Cc1nn(-c2ccccc2)c(N2CCCC2)c1/C=N/NC(=O)c1cc(-c2cccnc2)nc2ccccc12` the Potency was inconclusive: 23.1 µM [cytotoxic, single point].
With `COc1ccccc1-c1cnc2c(c1)C(=O)N([C@@H](C)CO)C[C@@H](C)[C@H](CN(C)C(=O)c1cccnc1)O2` the Potency was inconclusive: 0.0073 µM [rising, full curve, poor fit].
In the case of `O=C(CCCn1nnc(-c2cccnc2)n1)c1ccc(F)cc1`, the Potency is reported as inconclusive: 16.4 µM [cytotoxic, single point].
In the case of `CCc1nc2c(OCc3ccc(Cl)cc3)cccn2c1N(C)C(=O)c1ccc(C)cc1`, the Potency is reported as inconclusive: 20.6 µM [cytotoxic, single point].
For `COc1ccc(NC(=O)c2cc(-c3ccccn3)nc3ccccc23)cc1S(=O)(=O)N(C)C`, the Potency was inconclusive: 25.9 µM [cytotoxic, partial curve, poor fit].
With `Cc1ccc(NC(=O)Cn2nnc(C(=O)NCCc3ccccc3)c2N)cc1` the Potency was inconclusive: 29.1 µM [rising, single point].
With `Cc1[nH]ccc2cc3nc4ccccc4c3cc12` the Potency was active: 10.3 µM.
For `Cc1cc2ccccc2n1CCNC(=O)C1CCCC1`, the Potency was active: 18.4 µM.
For `O=C(COCC(=O)Nc1cccc(C(F)(F)F)c1)Nc1cccc(C(F)(F)F)c1`, the Potency was inconclusive: 16.4 µM [cytotoxic, single point].
With `C=CCn1c(=N)n(CC(=O)OC)c2ccccc21` the Potency was inconclusive: 29.1 µM [rising, single point].
With `CCN1C(=O)C(CC(=O)Nc2c(C)cccc2C)SC1=Nc1ccc(S(N)(=O)=O)cc1` (stereo unspecified) the Potency was inconclusive: 29.1 µM [rising, single point].
For `COc1ccccc1-n1cnnc1SCc1csc(-c2ccccc2)n1`, the Potency was “inactive”.
In the case of `FC(F)(F)c1cccc(NC(=S)Nc2cccc(Cl)c2)c1`, the Potency is reported as “inactive”.
With `COc1ccc(-n2c(CCc3ccccc3)nnc2SCC(=O)c2ccccc2)cc1` the Potency was active: 9.2 µM.
In the case of `Cc1ccccc1C(=O)N1CCN(c2ncnc3c2cnn3-c2ccccc2)CC1`, the Potency is reported as inconclusive: 8.2 µM [cytotoxic, partial curve].
For `CCOC(=O)N1CCC(N2Cc3cccc(C(=O)Nc4ccc(CC)cc4)c3C2=O)CC1`, the Potency was inconclusive: 29.1 µM [cytotoxic, single point].
For `COc1ccc(C(=O)Nc2ccc3c4c(cccc24)CC3)cc1`, the Potency was active: 13 µM.
For `CCNS(=O)(=O)c1ccc(CCC(=O)Nc2cc(Cl)ccc2Oc2ccccc2)cc1`, the Potency was active: 16.4 µM.
With `Cc1cc(NC(=O)c2cc([N+](=O)[O-])cc([N+](=O)[O-])c2)n(-c2ccccc2)n1` the Potency was inconclusive: 16.4 µM [cytotoxic, single point].
In the case of `Nc1c(C(=O)NC23CC4CC(CC(C4)C2)C3)sc2nc3c(c(C(F)(F)F)c12)CCC3`, the Potency is reported as inconclusive: 32.6 µM [cytotoxic, single point].
For `Cc1cc(C(=O)CCl)c(C)n1-c1ccon1`, the Potency was inconclusive: 23.1 µM [cytotoxic, single point].
With `CCCCN1C(=O)C2C3C=CC(C2C1=O)C1C2C(=O)N(CCCC)C(=O)C2C31` (stereo unspecified) the Potency was inconclusive: 23.1 µM [cytotoxic, partial curve, poor fit].
In the case of `Cc1ccccc1NC(=O)c1nc(S(C)(=O)=O)ncc1N(Cc1ccco1)Cc1sccc1C`, the Potency is reported as “inactive”.
With `Cc1ccccc1OCC(=O)Nc1ccc(C(=O)OCc2cc(=O)n3ccsc3n2)cc1` the Potency was inconclusive: 11.6 µM [rising, partial curve].
In the case of `NC(c1csc(Nc2ccc(C(=O)c3ccccc3)cc2)n1)C1CCCCC1` (stereo unspecified), the Potency is reported as “inactive”.
In the case of `O=[N+]([O-])c1cc(C(F)(F)F)ccc1N1CCC(O)CC1`, the Potency is reported as “inactive”.
In the case of `O=C1CCSc2ccc(Cl)cc2N1Cc1ccc(Cl)cc1`, the Potency is reported as inconclusive: 18.4 µM [cytotoxic, single point].
For `Cc1cc(C(=O)CSc2nc3ccccc3[nH]2)c(C)n1Cc1ccco1`, the Potency was active: 2.06 µM.
With `Cc1ccc(-c2nc(NC(=O)CSc3ccc4ccccc4n3)ns2)cc1` the Potency was “inactive”.
With `COc1ccc(CN(C)C(=O)c2cc(-c3ccccc3)nc3ccc(C)cc23)c(OC)c1OC` the Potency was inconclusive: 16.4 µM [cytotoxic, partial curve, poor fit].
In the case of `CCCCCCCCCCCC(=O)NC(C(=O)OCC)C(O)c1cccc([N+](=O)[O-])c1` (stereo unspecified), the Potency is reported as inconclusive: 23.1 µM [cytotoxic, single point].
For `Cc1nc(N/N=C/c2ccccn2)sc1C`, the Potency was inconclusive: 14.6 µM [cytotoxic, partial curve, poor fit].
In the case of `CCOC(=O)c1[nH]c2ccc(OCC)cc2c1NC(=O)CN1CCC2(CC1)OCCO2`, the Potency is reported as “inactive”.
In the case of `CCCCOC(=O)c1cc(=O)[nH]c2ccc(C)cc12`, the Potency is reported as active: 18.4 µM.
In the case of `COC(=O)c1cc2sccc2n1CC(=O)Nc1ccc(C)cc1C`, the Potency is reported as “inactive”.
For `Cc1ccc(N(CC(=O)NCc2ccccc2Cl)S(=O)(=O)c2c(C)noc2C)cc1`, the Potency was “inactive”.
For `CCN(CC)CCNc1cc(C)nc2c1C(=O)C(=O)C=C2N1CCCCC1`, the Potency was inconclusive: 23.1 µM [cytotoxic, single point].
In the case of `CC(C)(C)C(=O)c1cnc(Nc2ccccc2Cl)s1`, the Potency is reported as “inactive”.
In the case of `COc1cc([N+](=O)[O-])ccc1NC(=O)C[n+]1ccccc1`, the Potency is reported as inconclusive: 9.2 µM [rising, partial curve, poor fit].
With `N#Cc1nc(-c2ccccc2Cl)oc1NCc1ccco1` the Potency was inconclusive: 29.1 µM [cytotoxic, single point].
With `Cc1cc(Br)c(OCc2ccc(C(=O)N/N=C3\CC4CC=CC34)cc2)c(Br)c1` (stereo unspecified) the Potency was “inactive”.
In the case of `Cc1ccc2c(c1)[C@H]1[C@H](CO2)[C@H](c2ccccc2)[C@]2(C)C(=O)N(C)CC(=O)N12`, the Potency is reported as “inactive”.
With `CC1CCN(c2oc(Cc3cccc4ccccc34)nc2C#N)CC1` the Potency was inconclusive: 13 µM [cytotoxic, partial curve].
In the case of `CC(C)C[C@H](N)c1nnc(S(=O)(=O)Cc2ccc(F)cc2)o1`, the Potency is reported as inconclusive: 18.4 µM [cytotoxic, single point].
In the case of `CCc1cc(C(=O)N2CCCC(C(=O)c3cccc(OC(C)C)c3)C2)n(C)n1` (stereo unspecified), the Potency is reported as “inactive”.
In the case of `Cc1[nH]c2ccccc2c1CCNC(=O)c1c(N)no[n+]1[O-]`, the Potency is reported as inconclusive: 16.4 µM [cytotoxic, single point].
For `Cc1ccc(C)c2nc(Cl)c(C3NC(=O)c4ccccc4N3)cc12` (stereo unspecified), the Potency was inconclusive: 25.9 µM [cytotoxic, single point].
